According to paper PMC4703748:
These are yes or no findings as the source states them, for the method shown. Binding seen in cells or lysates may run through a third protein. Some results given as binding are weak or reduced against the parent protein; the word gives no strength.

Protein sequences, listed by entry. Tags and fused reporters are not part of them.
UniProt Q13950: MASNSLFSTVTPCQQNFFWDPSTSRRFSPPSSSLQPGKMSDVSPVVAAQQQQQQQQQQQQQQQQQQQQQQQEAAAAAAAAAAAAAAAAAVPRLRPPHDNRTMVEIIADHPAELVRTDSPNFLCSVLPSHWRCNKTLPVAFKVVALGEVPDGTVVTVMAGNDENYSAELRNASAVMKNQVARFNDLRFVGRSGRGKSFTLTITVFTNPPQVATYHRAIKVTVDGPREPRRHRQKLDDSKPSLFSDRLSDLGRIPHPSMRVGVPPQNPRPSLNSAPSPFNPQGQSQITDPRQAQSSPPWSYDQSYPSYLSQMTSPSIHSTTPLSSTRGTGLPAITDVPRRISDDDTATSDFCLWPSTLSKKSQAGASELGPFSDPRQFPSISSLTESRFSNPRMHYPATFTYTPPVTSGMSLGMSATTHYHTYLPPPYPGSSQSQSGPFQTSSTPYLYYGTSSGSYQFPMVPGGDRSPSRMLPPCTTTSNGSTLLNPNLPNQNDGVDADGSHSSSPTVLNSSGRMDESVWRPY
UniProt Q92793: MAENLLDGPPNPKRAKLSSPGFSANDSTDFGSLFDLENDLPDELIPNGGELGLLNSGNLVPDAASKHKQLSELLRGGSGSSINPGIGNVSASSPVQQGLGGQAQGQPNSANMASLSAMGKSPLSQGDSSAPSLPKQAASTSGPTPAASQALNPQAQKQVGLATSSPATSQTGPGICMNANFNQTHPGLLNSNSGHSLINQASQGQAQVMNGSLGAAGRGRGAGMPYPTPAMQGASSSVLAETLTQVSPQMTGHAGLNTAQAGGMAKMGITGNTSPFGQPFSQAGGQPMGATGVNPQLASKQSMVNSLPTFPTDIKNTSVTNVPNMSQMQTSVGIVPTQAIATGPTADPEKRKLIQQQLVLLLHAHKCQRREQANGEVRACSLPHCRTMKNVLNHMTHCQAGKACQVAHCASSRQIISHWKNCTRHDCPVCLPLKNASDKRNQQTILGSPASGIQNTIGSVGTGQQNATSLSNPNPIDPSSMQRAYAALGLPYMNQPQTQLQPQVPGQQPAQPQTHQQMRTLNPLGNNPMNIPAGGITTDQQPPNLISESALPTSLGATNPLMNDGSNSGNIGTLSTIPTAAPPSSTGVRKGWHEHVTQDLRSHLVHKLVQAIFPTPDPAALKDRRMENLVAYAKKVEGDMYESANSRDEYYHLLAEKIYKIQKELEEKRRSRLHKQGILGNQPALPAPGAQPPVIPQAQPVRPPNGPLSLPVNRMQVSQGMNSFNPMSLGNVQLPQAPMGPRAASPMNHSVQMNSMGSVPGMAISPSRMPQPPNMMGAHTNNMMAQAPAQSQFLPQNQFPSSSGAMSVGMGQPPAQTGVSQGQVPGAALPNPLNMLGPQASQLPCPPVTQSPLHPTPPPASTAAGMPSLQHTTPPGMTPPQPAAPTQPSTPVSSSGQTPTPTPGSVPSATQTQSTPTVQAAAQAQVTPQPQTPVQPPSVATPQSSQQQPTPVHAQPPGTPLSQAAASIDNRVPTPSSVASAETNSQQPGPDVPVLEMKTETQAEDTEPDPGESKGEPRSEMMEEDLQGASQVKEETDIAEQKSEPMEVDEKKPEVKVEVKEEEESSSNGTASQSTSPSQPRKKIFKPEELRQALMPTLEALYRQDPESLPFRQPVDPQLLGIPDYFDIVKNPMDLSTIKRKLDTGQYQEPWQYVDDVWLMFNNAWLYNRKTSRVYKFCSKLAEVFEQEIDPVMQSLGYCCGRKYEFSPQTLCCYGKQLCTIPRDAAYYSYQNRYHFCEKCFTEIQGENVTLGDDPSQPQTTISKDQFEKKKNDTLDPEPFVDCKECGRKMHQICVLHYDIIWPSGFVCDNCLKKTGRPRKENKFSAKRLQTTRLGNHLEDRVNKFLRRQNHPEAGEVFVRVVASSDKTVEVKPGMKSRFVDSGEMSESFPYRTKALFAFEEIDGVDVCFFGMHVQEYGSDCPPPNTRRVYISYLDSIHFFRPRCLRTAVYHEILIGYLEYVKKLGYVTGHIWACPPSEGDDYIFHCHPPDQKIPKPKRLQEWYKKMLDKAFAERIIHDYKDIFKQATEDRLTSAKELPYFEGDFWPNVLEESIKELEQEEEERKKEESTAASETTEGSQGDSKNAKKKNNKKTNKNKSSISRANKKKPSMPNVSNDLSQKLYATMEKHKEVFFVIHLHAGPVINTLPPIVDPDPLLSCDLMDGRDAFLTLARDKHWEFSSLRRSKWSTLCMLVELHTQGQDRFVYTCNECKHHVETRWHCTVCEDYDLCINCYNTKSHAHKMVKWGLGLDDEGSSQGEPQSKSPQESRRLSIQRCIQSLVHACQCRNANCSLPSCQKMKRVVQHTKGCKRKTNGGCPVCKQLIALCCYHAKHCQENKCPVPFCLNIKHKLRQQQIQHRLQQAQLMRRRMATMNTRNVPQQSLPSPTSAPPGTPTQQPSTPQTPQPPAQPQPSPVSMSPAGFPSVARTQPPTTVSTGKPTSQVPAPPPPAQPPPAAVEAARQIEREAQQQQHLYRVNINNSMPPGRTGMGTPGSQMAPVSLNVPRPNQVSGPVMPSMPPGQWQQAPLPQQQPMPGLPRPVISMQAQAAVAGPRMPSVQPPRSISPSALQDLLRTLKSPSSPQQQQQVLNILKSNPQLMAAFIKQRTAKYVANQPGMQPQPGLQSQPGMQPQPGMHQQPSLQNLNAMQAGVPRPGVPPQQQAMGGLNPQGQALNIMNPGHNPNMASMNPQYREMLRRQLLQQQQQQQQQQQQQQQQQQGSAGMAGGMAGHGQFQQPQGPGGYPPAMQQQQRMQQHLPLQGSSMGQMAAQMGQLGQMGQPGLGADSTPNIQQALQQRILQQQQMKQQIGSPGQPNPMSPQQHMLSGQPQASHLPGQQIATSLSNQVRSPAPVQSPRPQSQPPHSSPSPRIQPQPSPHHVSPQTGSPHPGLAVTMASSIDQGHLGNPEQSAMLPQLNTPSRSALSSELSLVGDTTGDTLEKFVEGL

Target: runt-related transcription factor 2 (Runx2) (human (endogenous in HOS)) (UniProt Q13950)
Assay: co-IP; HOS cells treated with or without 20 uM lansoprazole for 2 d; lysed in 50 mM HEPES, 150 mM NaCl, 10% glycerol, 1% Triton X-100, 1.5 mM MgCl2, 1 mM EGTA, 100 mM NaF, 10 mM sodium pyrophosphate, diluted two-fold; immunoprecipitated with 2 ug anti-Runx2 antibody overnight and Dynabeads Protein …; CBP visualised by immunoblotting

- binding: binds
Substance: CREB-binding protein (CBP) (from UniProt Q92793 1-2442)
